The source of these data is patent US20240309360A1, “TRANS-ACTIVATORS AND METHODS AND USE THEREOF” (THE GOVERNING COUNCIL OF THE UNIVERSITY OF TORONTO, priority 2021, published 2024).

Sequences of proteins named here, by UniProt entry; tags and fusion partners are left off. Residues count along the entry.
UniProt Q15059, residues 2-726: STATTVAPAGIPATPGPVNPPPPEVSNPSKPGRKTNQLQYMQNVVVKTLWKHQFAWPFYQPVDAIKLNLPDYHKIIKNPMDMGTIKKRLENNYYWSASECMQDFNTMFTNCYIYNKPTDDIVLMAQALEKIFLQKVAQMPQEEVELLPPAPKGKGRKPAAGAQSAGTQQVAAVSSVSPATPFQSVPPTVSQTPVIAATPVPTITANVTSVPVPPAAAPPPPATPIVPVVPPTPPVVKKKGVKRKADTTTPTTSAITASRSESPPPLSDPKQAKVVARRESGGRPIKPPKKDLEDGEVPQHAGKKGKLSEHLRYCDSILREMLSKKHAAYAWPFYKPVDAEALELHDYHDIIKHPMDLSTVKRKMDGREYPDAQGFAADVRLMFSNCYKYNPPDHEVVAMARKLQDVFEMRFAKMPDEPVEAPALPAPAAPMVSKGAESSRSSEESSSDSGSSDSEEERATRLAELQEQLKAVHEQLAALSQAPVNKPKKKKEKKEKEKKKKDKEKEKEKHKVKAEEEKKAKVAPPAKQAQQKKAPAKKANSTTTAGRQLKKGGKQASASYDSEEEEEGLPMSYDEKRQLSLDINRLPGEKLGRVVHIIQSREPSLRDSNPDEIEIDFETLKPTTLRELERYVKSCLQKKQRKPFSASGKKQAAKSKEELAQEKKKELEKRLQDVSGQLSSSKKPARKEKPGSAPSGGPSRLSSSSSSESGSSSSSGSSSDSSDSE
UniProt P25440: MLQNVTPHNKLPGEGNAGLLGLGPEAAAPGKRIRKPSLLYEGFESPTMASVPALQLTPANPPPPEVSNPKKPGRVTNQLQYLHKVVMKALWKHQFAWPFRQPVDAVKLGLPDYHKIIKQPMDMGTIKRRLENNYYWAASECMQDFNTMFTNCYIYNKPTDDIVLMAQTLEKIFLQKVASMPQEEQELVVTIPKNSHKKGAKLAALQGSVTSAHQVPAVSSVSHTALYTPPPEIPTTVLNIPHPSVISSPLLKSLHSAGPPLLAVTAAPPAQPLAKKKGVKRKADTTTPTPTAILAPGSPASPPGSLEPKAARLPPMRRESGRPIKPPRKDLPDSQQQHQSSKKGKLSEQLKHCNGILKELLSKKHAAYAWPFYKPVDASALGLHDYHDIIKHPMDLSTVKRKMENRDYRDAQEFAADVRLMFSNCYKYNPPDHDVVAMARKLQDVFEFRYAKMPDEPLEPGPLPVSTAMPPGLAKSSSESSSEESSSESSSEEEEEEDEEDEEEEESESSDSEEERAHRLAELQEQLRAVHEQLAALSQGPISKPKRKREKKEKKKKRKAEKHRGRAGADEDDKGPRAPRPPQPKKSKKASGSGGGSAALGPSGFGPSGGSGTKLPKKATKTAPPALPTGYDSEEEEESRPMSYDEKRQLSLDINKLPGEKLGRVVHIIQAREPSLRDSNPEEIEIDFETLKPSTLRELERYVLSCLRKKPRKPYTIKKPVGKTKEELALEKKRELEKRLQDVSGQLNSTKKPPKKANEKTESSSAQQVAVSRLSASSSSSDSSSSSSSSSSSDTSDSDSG
UniProt Q92793, residues 2-2442: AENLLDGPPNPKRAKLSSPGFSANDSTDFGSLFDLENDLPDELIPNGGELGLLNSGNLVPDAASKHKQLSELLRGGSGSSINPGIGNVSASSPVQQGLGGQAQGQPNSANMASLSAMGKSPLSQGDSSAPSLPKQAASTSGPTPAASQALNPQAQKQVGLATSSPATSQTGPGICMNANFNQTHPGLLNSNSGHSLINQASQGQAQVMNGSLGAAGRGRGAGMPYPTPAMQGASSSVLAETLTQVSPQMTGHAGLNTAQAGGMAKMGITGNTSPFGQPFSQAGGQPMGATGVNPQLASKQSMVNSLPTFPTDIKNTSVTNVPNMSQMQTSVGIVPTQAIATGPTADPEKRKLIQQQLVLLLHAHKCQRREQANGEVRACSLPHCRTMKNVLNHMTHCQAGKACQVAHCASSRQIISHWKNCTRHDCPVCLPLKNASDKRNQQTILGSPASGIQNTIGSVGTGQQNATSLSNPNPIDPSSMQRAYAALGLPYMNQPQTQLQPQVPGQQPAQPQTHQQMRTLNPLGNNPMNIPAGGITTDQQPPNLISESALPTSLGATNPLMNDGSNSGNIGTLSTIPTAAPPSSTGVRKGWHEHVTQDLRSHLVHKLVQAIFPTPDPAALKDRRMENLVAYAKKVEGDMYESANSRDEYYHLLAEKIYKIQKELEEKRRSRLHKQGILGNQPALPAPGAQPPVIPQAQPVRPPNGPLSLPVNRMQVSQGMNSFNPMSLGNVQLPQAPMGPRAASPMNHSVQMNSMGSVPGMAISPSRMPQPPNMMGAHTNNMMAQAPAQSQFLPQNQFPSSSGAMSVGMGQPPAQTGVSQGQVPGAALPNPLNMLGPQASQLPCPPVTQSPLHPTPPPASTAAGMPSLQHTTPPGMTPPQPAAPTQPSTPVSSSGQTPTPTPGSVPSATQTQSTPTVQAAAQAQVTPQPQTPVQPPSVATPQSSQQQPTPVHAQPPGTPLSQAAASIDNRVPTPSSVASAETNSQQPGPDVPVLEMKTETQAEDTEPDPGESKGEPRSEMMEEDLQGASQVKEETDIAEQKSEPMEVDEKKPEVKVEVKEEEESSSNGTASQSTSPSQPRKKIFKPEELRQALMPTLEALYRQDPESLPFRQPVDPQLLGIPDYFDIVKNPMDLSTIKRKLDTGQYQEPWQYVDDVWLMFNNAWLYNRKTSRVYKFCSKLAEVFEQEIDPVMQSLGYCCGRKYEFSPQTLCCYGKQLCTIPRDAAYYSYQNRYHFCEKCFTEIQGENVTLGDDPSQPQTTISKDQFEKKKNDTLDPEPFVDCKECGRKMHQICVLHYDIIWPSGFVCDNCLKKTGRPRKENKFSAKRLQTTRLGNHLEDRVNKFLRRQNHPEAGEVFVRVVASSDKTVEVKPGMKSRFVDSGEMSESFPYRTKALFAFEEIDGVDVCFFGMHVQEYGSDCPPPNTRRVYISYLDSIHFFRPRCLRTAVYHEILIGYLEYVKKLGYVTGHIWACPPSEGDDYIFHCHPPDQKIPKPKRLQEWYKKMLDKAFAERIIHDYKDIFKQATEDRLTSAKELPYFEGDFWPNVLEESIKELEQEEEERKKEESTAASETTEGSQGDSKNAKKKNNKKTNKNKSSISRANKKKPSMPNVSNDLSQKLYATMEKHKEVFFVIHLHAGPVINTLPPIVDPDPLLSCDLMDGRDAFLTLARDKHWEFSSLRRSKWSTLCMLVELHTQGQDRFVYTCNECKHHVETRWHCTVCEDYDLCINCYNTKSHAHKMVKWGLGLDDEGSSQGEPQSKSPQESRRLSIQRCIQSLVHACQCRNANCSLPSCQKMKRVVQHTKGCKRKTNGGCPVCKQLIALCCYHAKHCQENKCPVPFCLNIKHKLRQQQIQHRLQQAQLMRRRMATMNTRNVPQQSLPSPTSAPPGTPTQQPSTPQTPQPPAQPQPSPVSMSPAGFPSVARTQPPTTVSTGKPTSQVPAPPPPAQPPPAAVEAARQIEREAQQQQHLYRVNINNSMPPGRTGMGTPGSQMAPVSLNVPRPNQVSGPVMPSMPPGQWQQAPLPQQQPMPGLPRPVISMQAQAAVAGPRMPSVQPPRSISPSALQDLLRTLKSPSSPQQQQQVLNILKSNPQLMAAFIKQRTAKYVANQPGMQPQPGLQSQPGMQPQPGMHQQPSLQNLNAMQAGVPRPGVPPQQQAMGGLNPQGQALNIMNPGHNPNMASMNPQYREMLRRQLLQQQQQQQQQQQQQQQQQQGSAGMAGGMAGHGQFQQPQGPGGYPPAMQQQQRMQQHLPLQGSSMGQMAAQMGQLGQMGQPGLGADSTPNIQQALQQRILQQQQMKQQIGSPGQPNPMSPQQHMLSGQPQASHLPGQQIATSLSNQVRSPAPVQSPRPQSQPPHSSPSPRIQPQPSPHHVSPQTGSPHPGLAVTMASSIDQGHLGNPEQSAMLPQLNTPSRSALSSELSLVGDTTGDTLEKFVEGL
UniProt Q09472, residues 2-2414: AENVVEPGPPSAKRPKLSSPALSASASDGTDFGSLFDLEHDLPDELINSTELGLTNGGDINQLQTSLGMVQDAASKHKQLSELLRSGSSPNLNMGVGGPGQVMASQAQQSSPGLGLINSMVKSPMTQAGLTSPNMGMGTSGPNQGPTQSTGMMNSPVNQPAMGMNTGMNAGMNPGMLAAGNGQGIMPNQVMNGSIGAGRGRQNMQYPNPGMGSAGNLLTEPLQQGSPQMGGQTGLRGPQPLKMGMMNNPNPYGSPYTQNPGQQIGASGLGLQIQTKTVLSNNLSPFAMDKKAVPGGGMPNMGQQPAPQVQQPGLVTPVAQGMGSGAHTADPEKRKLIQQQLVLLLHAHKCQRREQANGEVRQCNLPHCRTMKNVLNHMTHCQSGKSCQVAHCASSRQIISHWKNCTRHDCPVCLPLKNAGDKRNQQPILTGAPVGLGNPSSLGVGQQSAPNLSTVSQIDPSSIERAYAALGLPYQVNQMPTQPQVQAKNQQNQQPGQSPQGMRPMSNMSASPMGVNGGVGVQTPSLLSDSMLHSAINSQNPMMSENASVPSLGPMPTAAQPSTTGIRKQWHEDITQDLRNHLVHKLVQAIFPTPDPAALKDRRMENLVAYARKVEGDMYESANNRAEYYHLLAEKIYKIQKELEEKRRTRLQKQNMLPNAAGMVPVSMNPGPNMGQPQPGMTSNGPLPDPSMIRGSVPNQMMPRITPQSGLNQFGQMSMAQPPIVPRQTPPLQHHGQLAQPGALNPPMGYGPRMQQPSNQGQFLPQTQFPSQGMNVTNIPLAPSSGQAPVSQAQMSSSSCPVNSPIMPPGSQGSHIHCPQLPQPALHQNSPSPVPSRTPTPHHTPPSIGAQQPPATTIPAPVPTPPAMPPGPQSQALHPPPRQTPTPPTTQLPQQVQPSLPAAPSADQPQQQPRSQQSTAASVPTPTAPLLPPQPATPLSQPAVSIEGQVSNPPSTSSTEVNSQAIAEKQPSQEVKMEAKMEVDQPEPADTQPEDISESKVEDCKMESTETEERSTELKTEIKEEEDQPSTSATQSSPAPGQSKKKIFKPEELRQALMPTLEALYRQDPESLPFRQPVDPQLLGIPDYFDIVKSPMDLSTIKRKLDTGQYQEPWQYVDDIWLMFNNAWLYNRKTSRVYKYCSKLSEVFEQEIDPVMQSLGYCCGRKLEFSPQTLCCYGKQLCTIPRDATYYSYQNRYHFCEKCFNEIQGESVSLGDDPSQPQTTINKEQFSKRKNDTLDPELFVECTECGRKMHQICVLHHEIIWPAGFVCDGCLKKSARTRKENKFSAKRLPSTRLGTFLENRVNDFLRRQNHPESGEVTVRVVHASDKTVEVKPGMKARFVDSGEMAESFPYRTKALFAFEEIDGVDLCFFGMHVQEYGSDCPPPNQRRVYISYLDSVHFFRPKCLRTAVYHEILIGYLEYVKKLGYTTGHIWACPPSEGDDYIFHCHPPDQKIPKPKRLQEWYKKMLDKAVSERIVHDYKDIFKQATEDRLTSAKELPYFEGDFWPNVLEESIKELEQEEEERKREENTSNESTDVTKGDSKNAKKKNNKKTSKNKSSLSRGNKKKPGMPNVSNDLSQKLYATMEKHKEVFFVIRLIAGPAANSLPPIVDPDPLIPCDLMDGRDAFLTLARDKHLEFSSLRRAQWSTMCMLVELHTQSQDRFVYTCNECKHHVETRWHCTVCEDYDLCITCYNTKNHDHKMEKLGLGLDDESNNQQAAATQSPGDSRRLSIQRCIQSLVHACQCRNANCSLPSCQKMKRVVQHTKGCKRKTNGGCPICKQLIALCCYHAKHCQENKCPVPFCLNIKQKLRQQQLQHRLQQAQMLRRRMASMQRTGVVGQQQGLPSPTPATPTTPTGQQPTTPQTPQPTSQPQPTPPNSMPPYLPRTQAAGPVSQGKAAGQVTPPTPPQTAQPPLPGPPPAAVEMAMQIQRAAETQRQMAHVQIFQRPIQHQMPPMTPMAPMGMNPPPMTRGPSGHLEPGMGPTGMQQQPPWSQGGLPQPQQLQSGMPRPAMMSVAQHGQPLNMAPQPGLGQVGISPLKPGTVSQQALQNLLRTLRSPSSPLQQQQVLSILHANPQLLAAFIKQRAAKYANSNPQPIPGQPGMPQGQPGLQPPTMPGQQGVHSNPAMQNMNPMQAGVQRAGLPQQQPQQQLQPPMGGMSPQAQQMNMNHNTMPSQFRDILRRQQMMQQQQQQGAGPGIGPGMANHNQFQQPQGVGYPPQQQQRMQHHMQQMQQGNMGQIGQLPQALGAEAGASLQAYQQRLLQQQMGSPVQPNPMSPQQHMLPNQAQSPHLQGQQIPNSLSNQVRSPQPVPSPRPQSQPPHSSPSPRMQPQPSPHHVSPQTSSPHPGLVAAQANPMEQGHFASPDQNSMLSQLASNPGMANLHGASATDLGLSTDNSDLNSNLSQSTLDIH

Assay [1] deals with BRD3 (human) (UniProt Q15059). The assay can be described thus: AP-MS and/or BioID2 in HEK293 cells.
The target in assay [2] is BRD2 (human) (UniProt P25440). Description: AP-MS and/or BioID2 in HEK293 cells.
In assay [3] the target is SMARCA4 (human) (UniProt P51532). The assay can be described thus: AP-MS and/or BioID2 in HEK293 cells.
Assay [4] concerns the target SMARCA2 (human) (UniProt P51531). The assay can be described thus: AP-MS and/or BioID2 in HEK293 cells.
Substrate in assay [5]: CBP (human) (UniProt Q92793)
Description: AP-MS and/or BioID2 in HEK293 cells (method not told for the pair).

In assay [6] the target is p300 (human) (UniProt Q09472). Described as above.
Assay [7] addresses p300 (human) (UniProt Q09472). Description: AP-MS (anti-FLAG), HEK293 cells.
The target of assay [8] is p300 (human) (UniProt Q09472). Description: AP-MS (FIG. 14A).
Substrate in assay [9]: CBP (human) (UniProt Q92793)
The assay can be described thus: AP-MS (anti-FLAG), HEK293 cells.

Substrate in assay [10]: CBP (human) (UniProt Q92793)
The assay can be described thus: AP-MS (FIG. 14A).

No constants are given. Whether binding was seen depends on the method and setting. For some assays here: Binding seen in cells or lysates may run through a third protein. Some binding calls cover weakened binding; strength is not graded here. Sequences can lack the tags named with a protein.

B1: FAM90A1 fused to BioID2 (BirA from Aquifex aeolicus) and FLAG (protein, human;Aquifex aeolicus, UniProt Q86YD7 1-464, looked up, not shown: small tags and cut ends)
chain: MMARRDPKPGAKRLVRAQTLQKQRRAPVGPRAPPPDEEDPRLKCKNCEAFGHTARSTRCPMKCWKAALVPPNFGEKEGKENLKPWKPQVEANPGPLNKDKGEKEERPRPQDPQRKALLHIFSRKPPEKPLPNQKGSTESSDYLRVASGPMPVHTTSKRPRVDPVLSDRSATEMSDRGSVLASLSPLRKASLSSSSSLGPKERQTGAAADIPQTAVRHQGPEPLLVVKPTHSSPAGGCREVPQAASKTHGLLQAVSPQAQDKRPAVTSQPCPPAATHSLGLGSNLSFGPGAKRSAPAPIQACLNFPKKPRLGPFQIPESAIQGGELGAPENLQPPPAATELGPRTSPQTGTRTPAQVLSGDRQPPHSRPCLPTAQACTMSHHPAASHDGAQPLRVLFRRLENGRWSSSLLTAPSFHSPEKPGAFLAQSPHVSEKSEGPCVRVPPSVLYEDLQVPSSSEDSDSDLE
Regarding B1, the binding result in [1] and in assay [2] was “binds” each time.

B2: SS18L2 fused to BioID2 (BirA from Aquifex aeolicus) and FLAG (protein, human;Aquifex aeolicus, UniProt Q9UHA2 1-77, looked up, not shown: small tags and cut ends)
chain: MSVAFVPDWLRGKAEVNQETIQRLLEENDQLIRCIVEYQNKGRGNECVQYQHVLHRNLIYLATIADASPTSTSKAME
B2: the binding result in assay [3] and in assay [4] was “binds” throughout.

B3: FAM22F/NUTM2F fused to BioID2 (BirA from Aquifex aeolicus) and FLAG (protein, human;Aquifex aeolicus, UniProt A1L443 1-756, looked up, not shown: small tags and cut ends)
chain: MASNGAYPVLGPGVTVNPGTSLSVFTALPFATPAPGPAHRPPLVTAVVPPAGPLVLSAFPSTPLVAGQDGRGPSGAGASNVFVQMRTEVGPVKPPQAQTLILTQAPLVWQAPGTLCGGVMCPPPLLLAAAPGVPVTSAQVVGGTQACEGGWSHGLPLPPPPPAAQVAPIVSPGNARPWPQGAHGEGSLAPSQAKARPDDSCKPKSVYENFRLWQHYKPLARRHLPQSPDTEALSCFLIPVLRSLARRKPTMTLEEGLWQAMREWQHTSNFDRMIFYEMAEKFLEFEAEEEMQIQKSQWMKGPQSLPPPAPPRLEPRGPPAPEVVKQPVYLPSKDGPKAPTACLPPPRPQRPAETKAHLPPPRPQRPAETNAHLPPPRPQRPAETKVPEEIPPEVVQEYVDIMEELLGSHPGDTGEPEGQREKGKVEQPQEEDGITSDPGLLSYIDKLCSQEDFVTKVEAVIHPRFLEELLSPDPQMDFLALSQELEQEEGLTLAQLVEKRLLSLKEKGCGRAAPRHGTARLDSSPSEFAAGQEAAREVPDPQQRVSVETSPPQTAAQDPQGQGRVRTGMARSEDPAVLLGCQDSPRLKAVRPTSPPQDHRPTCPGLGTKDALGLPGESPVKESHGLAKGSSEETELPGMVYVVGSHHRLRPWRLSQSPVPSSGLLSPGGRGPQGALQSPSAQKRGLSPSPSPASKSKKRPLFGSPSPAEKTPHPGPGLRVSGEQSLAWGLGGPSQSQKRKGDPLASRRKKKRHCSQ
Consider B3, for which the binding result in [5] and in assay [6] was “binds” in each case.

B4: DCAF7 fused to BioID2 (BirA from Aquifex aeolicus) and FLAG (protein, human;Aquifex aeolicus, UniProt P61962 1-342, looked up, not shown: small tags and cut ends)
chain: MSLHGKRKEIYKYEAPWTVYAMNWSVRPDKRFRLALGSFVEEYNNKVQLVGLDEESSEFICRNTFDHPYPTTKLMWIPDTKGVYPDLLATSGDYLRVWRVGETETRLECLLNNNKNSDFCAPLTSFDWNEVDPYLLGTSSIDTTCTIWGLETGQVLGRVNLVSGHVKTQLIAHDKEVYDIAFSRAGGGRDMFASVGADGSVRMFDLRHLEHSTIIYEDPQHHPLLRLCWNKQDPNYLATMAMDGMEVVILDVRVPCTPVARLNNHRACVNGIAWAPHSSCHICTAADDHQALIWDIQQMPRAIEDPILAYTAEGEINNVQWASTQPDWIAICYNNCLEILRV
As to B4, the binding result in assay [5] and in assay [6] was “binds” in each case.

B5: SRF-C3orf62 fusion tagged with BirA-FLAG (protein, human;Aquifex aeolicus, UniProt P11831 1-338, looked up, not shown: small tags and cut ends)
chain: MLPTQAGAAAALGRGSALGGSLNRTPTGRPGGGGGTRGANGGRVPGNGAGLGPGRLEREAAAAAATTPAPTAGALYSGSEGDSESGEEEELGAERRGLKRSLSEMEIGMVVGGPEASAAATGGYGPVSGAVSGAKPGKKTRGRVKIKMEFIDNKLRRYTTFSKRKTGIMKKAYELSTLTGTQVLLLVASETGHVYTFATRKLQPMITSETGKALIQTCLNSPDSPPRSDPTTDQRMSATGFEETDLTYQVSESDSSGETKDTLKPAFTVTNLPGTTSTIQTAPSTSTTMQVSSGPSFPITNYLAPVSASVSPSAVSSANGTVLKSTGSGPVSSGGLMQAAVPCAPENENPAFATNHAPVNAKPHALCPERKPLTSKENVLMHSSILAPERESWRTAGEGENWRKENLRKDMERDLKADSNMPLNNSSQEVTKDLLDMIDHTSIRTIEELAGKIEFENELNHMCGHCQDSPFKEEAWALLMDKSPQKATDADPGSLKQAFDDHNIVETVLDLEEDYNVMTSFKYQIE
For the molecule B5, the binding entry in assay [7], in assay [8], in assay [9] and in [10] was “binds” each time.

B6: SPDYE4 fused to BioID2 (BirA from Aquifex aeolicus) and FLAG (protein, human;Aquifex aeolicus, UniProt A6NLX3 1-237, looked up, not shown: small tags and cut ends)
chain: MASGQARPPFEEESPQPSTTVRSPEVVVDDEVPGPSAPWIDPSPQPQSLGLKRKSEWSDESEEELEEELELERAPEPEDTWVVETLCGLKMKLKRKRASSVLPEHHEAFNRLLGDPVVQKFLAWDKDLRVSDKYLLAMVIAYFSRAGLFSWQYQRIHFFLALYLASDMEEDNQAPKQDIFSFLYGKNYSQRPLFHKLRYQLLCSMRWRTWVSPEEMEEIQAYDPEHWVWARDRTLIS
Consider B6, for which the binding result in assay [1] and in assay [2] was “binds” each time.
